Measured values: PubChem BioAssay (NCATS)
The inconclusive results got no clear call from the source; some entries with a clear call stand among them for comparison. A potency beside an inconclusive call is a rough fit, not a confirmed value. Active and inactive are the calls of the source. Calls come from the whole dose curve; as a rule, active = well fitted cell-killing curve with a large enough effect; inconclusive = small, poorly fitted or top-dose-only effect; inactive = flat fitted curve, though single readings scatter.

assay: Quantitative highthroughput screen to assess conditional lethalithy of P12 Ichikawa cells grown in RPMI1640 with dialyzed fetal bovine serum (RPMI+ds) (AID 1963880); details: ATP luminescence, 48 h; Potency: P12-Ichikawa viability; series mostly up to 45.8 µM; viability: at the top concentration; note: nearly all actives have a fitted effect of over 35% in size
Excerpt: Assay Provider: Jason Cantor Ph.D.
Department of Biochemistry
University of Wisconsin-Madison, Madison, WI, USA
Chemical screening studies have identified drug sensitivities across hundreds of cancer cell lines but most putative therapeutics fail to translate. Discovery and development of drug candidates in models that more accurately reflect nutrient levels in human blood is a major challenge. Here we performed high-throughput screens in conventional versus Human Plasma-Like Medium (HPLM) to identify compounds that were "missed" when screening using the artificial culture condition. Sets of conditional anticancer compounds spanned phases of clinical development and included non-oncology drugs were assessed. […] We also traced conditional phenotypes for several chemotherapeutics to availability of HPLM-specific metabolites and confirmed others for compounds whose reported targets are encoded by nonessential genes. Our findings establish generalizable strategies for exploiting conditional lethality in HPLM to reveal therapeutic candidates and mechanisms of action in cancer cells.
Described herein are the results of each viability screens against three cell lines: NOMO1 (an acute myeloid leukemia cell line); P12-Ichikawa (a T-cell acute lymphoblastic leukemia); and SEM (a B-cell ALL). Each assay was screened using 3 different cell culture media: homemade human plasma-Like medium with 10% dialyzed fetal bovine serum (HPLM+ds); RPMI1640 with 10% untreated FBS and 5mM glucose (RPMI+s); and RPMI1640 with 10% dialyzed fetal bovine serum and 5 mM glucose (RPMI+ds).
PROTOCOL TABLE (as described by Inglese J, Shamu CE and Guy RK. 2007)
SEQUENCE No. (e.g., 1, 2, 3, etc.); […] (e.g., Cells, Incubation, Reagent, etc.); VALUE and DESCRIPTION.
1; Cells; 5 uL; white, solid bottom 1536-well Greiner assay plate.
2; Compounds; 23 nL; Kalypsis pin tool (Wako USA) equipped with a 1536-well pin head to transfer to the assay plates.
3; Incubation; 48 hours; 37C incubation.
4; Reagent; 3 uL; CellTiter Glo (Promega).
5; Incubation; 5 min, room temperature
6; Detection; Luminescence, Viewlux PerkinElmer.
NOTES (numbers refer to Sequence numbers above)
1. Briefly, 5 ul of cell reagent was dispensed using a Multidrop Combi Dispenser. The NOMO1 and SEM cells were plated at 500 cells/well and the P12-Ichikawa line at 1000 cells/well.
2. After seeding the cells, 23 nL of MIPE 4.1 library compounds (in DMSO) were added to each plate using a Kalypsys 1536 Pintool dispenser. Bortezomib at final concentration of […] and DMSO were added to each plate as positive and negative controls respectively. For each screen, MIPE 4.1 compounds were added over an eleven-point concentration range […] in 3-fold dilutions.
3. Each plate was covered with a stainless steel gasketed lid to prevent evaporation and incubated for 48 hour at 37C, 95% relative humidity, and 5% CO2.
4-5. Three microliter CellTilter-GloTM luminescent substrate mix (Promega) reagent was added to the assay plate and incubated at room temperature for 5 min.
6. The luminescence signal was measured using a ViewLux (PerkinElmer) multiplate reader with a 2 second exposure time per plate. Data for each compound were normalized as percent viability such that measurements for DMSO and the empty well controls in each plate were defined as 100% and 0%, respectively.
Potency is the fitted concentration of half-maximal effect.

| Compound | viability | Potency |
| --- | --- | --- |
| CN1CCC(COc2cnc(-c3cccc(Cn4nc(-c5cccc(C#N)c5)ccc4=O)c3)nc2)CC1 | inactive: 105% |  |
| C=CCc1cccc(C=NNC(=O)CN2CCN(Cc3ccccc3)CC2)c1O |  | active: 13.2 µM |
| CC1(COc2ccc3c(c2)ncn3-c2ccc3cccc(N4CCC(N)CC4)c3n2)COC1 |  | inconclusive: 5.26 µM [cytotoxic, full curve] |
| CC(=O)CC(c1ccccc1)c1c(O)c2ccccc2oc1=O (stereo not given) | inactive: 107% |  |
| CCCCCCCCCCCCCCCCCCCCCCO | inactive: 109% |  |
| CCOC(=O)c1c(CSc2ccccc2)n(C)c2cc(Br)c(O)c(CN(C)C)c12 |  | inconclusive: 33.2 µM [cytotoxic, single point] |
| NC(=O)c1ncn([C@@H]2O[C@H](CO)[C@@H](O)[C@@H]2O)c1N | inactive: 104% |  |
| CCc1nc(-c2cccc(C)c2)c(-c2ccnc(NC(=O)c3ccccc3)c2)s1 |  | inconclusive: 23.5 µM [cytotoxic, single point] |
| CC(C)OC(=O)C(C(=O)OC(C)C)=C1SC=CS1 | inactive: 97.5% |  |
| CN[C@@H](C)C(=O)N[C@H]1CCCC[C@H]2CC[C@@H](C(=O)N[C@@H](c3ccccc3)c3cn(CCCCc4ccc(CCCCn5cc([C@@H](NC(=O)[C@@H]6CC[C@@H]7CCCC[C@H](NC(=O)[C@H](C)NC)C(=O)N76)c6ccccc6)nn5)cc4)nn3)N2C1=O | inactive: 67.1% |  |
| CCNC(=O)Nc1ccc(-c2nc3c(c(N4CCOC[C@H]4C)n2)CCN(C2COC2)C3)cc1 |  | inconclusive: 1.66 µM [cytotoxic, full curve] |
| O=c1[nH]c(=O)n([C@H]2C[C@@H](O)[C@@H](CO)O2)cc1C(F)(F)F |  | inconclusive: 3.32 µM [cytotoxic, full curve] |
| CCn1cc(C(=O)O)c(=O)c2cc(F)c(N3CCNCC3)nc21 | inactive: 105% |  |
| NC(=NCCCCCCN=C(N)N=C(N)Nc1ccc(Cl)cc1)N=C(N)Nc1ccc(Cl)cc1 |  | inconclusive: 37.2 µM [cytotoxic, partial curve, poor fit] |
| CC(=O)O[C@H]1C(=O)[C@@]2(C)C([C@H](OC(=O)c3ccccc3)[C@]3(O)C[C@H](OC(=O)[C@H](O)[C@@H](NC(=O)c4ccccc4)c4ccccc4)C(C)=C1C3(C)C)[C@]1(OC(C)=O)CO[C@@H]1C[C@@H]2O (stereo not given in full) |  | inconclusive: 0.0017 µM [cytotoxic, full curve] |
| CCn1cc(C(=O)O)c(=O)c2cc(F)c(N3CCNC(C)C3)c(F)c21 (stereo not given) | inactive: 100% |  |
| COc1cc([C@H]2Oc3cc([C@H]4Oc5cc(O)cc(O)c5C(=O)[C@H]4O)ccc3O[C@H]2CO)ccc1O | inactive: 93.9% |  |
| Cn1c2cc(S(C)=O)sc2c2cnn(Cc3cccc(N)c3)c(=O)c21 (stereo not given) |  | inconclusive: 14.8 µM [cytotoxic, partial curve] |
| Cc1coc2c1C(=O)C(=O)c1c-2ccc2c1CCCC2(C)C | inactive: 104% |  |
| CN1[C@H]2CC[C@H]1CC(OC(=O)c1c[nH]c3ccccc13)C2 (stereo not given in full) | inactive: 99.5% |  |

An excerpt of these results, as tab-separated lines.
Compound	viability	Potency
CCn1cc(C(=O)O)c(=O)c2cc(F)c(N3CCNC(C)C3)c(F)c21 (stereo not given)	inactive: 100%	
COc1cc([C@H]2Oc3cc([C@H]4Oc5cc(O)cc(O)c5C(=O)[C@H]4O)ccc3O[C@H]2CO)ccc1O	inactive: 93.9%	
Cn1c2cc(S(C)=O)sc2c2cnn(Cc3cccc(N)c3)c(=O)c21 (stereo not given)		inconclusive: 14.8 µM [cytotoxic, partial curve]

The list continues.

| Compound | viability | Potency |
| --- | --- | --- |
| Cc1ccc(NC(=O)c2cccc(C(C)(C)C#N)c2)cc1Nc1ccc2ncn(C)c(=O)c2c1 |  | inconclusive: 14.8 µM [cytotoxic, partial curve] |
| CC(=O)Oc1cc2c(s1)CCN(C(C(=O)C1CC1)c1ccccc1F)C2 (stereo not given) |  | inconclusive: 16.6 µM [cytotoxic, partial curve] |
| CS(=O)(=O)c1cccc(CNc2nc(Nc3ccc4c(c3)CCC(=O)N4)ncc2C(F)(F)F)c1 |  | inconclusive: 26.4 µM [cytotoxic, single point] |
| COc1ccc2c(c1)c(C1=C(c3c[nH]c4ccccc34)C(=O)NC1=O)cn2CCCN(C)C |  | inconclusive: 13.2 µM [cytotoxic, partial curve, poor fit] |
| COc1cc(Nc2ncc3c(n2)-c2ccc(Cl)cc2C(c2c(F)cccc2OC)=NC3)ccc1C(=O)O |  | inconclusive: 0.0526 µM [cytotoxic, full curve] |
| C#CCC(Cc1cnc2nc(N)nc(N)c2n1)c1ccc(C(=O)N[C@@H](CCC(=O)O)C(=O)O)cc1 (stereo not given in full) |  | inconclusive: 0.0469 µM [cytotoxic, full curve] |
| NC(=O)[C@@H](CCC(F)(F)F)N(Cc1ccc(-c2ncon2)cc1F)S(=O)(=O)c1ccc(Cl)cc1 |  | inconclusive: 37.2 µM [cytotoxic, single point] |
| COc1cc(CCc2cc(NC(=O)c3ccc(N4C[C@@H](C)N[C@@H](C)C4)cc3)n[nH]2)cc(OC)c1 |  | inconclusive: 6.62 µM [cytotoxic, partial curve] |
| NC(=O)c1nnn(Cc2cc(Cl)c(C(=O)c3ccc(Cl)cc3)c(Cl)c2)c1N |  | inconclusive: 37.2 µM [cytotoxic, single point] |
| C[C@H](CCC(=O)O)[C@H]1CC[C@H]2[C@@H]3[C@H](O)C[C@@H]4C[C@H](O)CC[C@]4(C)[C@@H]3CC[C@]12C | inactive: 107% |  |
| COc1cnc(NS(=O)(=O)c2ccc(N)cc2)nc1 |  | inconclusive: 20.9 µM [cytotoxic, partial curve] |
| Cc1nnc(C(C)C)n1C1C[C@H]2CC[C@@H](C1)N2CC[C@H](NC(=O)C1CCC(F)(F)CC1)c1ccccc1 (stereo not given in full) |  | inconclusive: 18.7 µM [cytotoxic, partial curve] |
| CO[C@@H]1[C@H](N(C)C(=O)c2ccccc2)C[C@H]2O[C@]1(C)n1c3ccccc3c3c4c(c5c6ccccc6n2c5c31)C(=O)NC4 |  | inconclusive: 2.64 µM [cytotoxic, full curve] |
| CN1N=C(N)c2cn([C@@H]3O[C@H](COP(=O)(O)O)[C@@H](O)[C@@H]3O)c3ncnc1c23 |  | inconclusive: 0.469 µM [cytotoxic, full curve] |
| CCC(=O)O[C@]1(C(=O)CO)CC[C@H]2[C@@H]3CCC4=CC(=O)CC[C@]4(C)[C@@H]3CC[C@@]21C |  | inconclusive: 13.2 µM [cytotoxic, partial curve] |
| O=C1NC(=O)C(c2cnc3ccccn23)=C1c1cn2c3c(cc(F)cc13)CN(C(=O)N1CCCCC1)CC2 |  | active: 5.88 µM |
| CN(C)C/C=C/C(=O)Nc1ccc(C(=O)Nc2cccc(Nc3ncc(Cl)c(-c4c[nH]c5ccccc45)n3)c2)cc1 |  | active: 0.331 µM |
| Cc1cccc2c1CC[C@H](CN1CCC(c3c(Cl)cccc3Cl)CC1)C[C@@H]2O |  | inconclusive: 5.26 µM [cytotoxic, full curve] |
| Cc1ccc(S(=O)(=O)N[C@@H](Cc2ccccc2)C(=O)CCl)cc1 |  | inconclusive: 37.2 µM [cytotoxic, single point] |
| Nc1[nH]nc2nnc(-c3c(-c4ccccc4)nn4ccccc34)cc12 |  | active: 13.2 µM |
